{
  "sequences": {"note": "The chains behind the UniProt entries cited, without tags or fusion partners.", "UniProt P43220, whole entry": "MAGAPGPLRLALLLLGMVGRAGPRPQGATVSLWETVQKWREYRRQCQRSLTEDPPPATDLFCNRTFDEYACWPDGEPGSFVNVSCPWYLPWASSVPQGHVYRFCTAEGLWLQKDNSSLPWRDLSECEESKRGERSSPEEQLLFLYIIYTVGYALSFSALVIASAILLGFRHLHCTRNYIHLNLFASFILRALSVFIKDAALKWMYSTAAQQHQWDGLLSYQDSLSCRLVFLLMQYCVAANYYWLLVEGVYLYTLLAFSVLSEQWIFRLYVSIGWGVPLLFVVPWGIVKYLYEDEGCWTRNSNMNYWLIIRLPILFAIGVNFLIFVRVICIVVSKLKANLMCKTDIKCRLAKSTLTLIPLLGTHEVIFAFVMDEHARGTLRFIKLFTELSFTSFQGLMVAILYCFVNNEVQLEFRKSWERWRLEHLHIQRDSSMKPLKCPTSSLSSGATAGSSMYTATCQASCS"},
  "source": "PubChem BioAssay AID624417",
  "about": "(National Center for Advancing Translational Sciences (NCATS), 2012)",
  "note": "Hit rate of the full screen: of about 410,000 compounds, about 6,400 (1.6%) were called active. These results got no clear call from the source, so the numbers are uncertain. Calls follow the shape of the dose curve; as a rule, active = well fitted inhibition curve with a large enough effect; inconclusive = small, poorly fitted or top-dose-only effect; inactive = no such curve, though single readings can be large or run the other way. Potency is read from the fitted curve at half-maximal effect.",
  "data": [
    {"molecular_target": "Glucagon-like peptide 1 receptor (Homo sapiens) (UniProt P43220)", "experiment": "qHTS of GLP-1 Receptor Inverse Agonists (Inhibition Mode); also: nearly all actives have a fitted effect of over 55% in size", "details": "HEK293 GLP-1R CRE-luciferase, luminescence, 24 h; GLP-1R form is constitutively active", "values": [
      {"smiles": "COc1ccccc1OP(C)(=O)Nc1ccc(Br)cc1", "note": "(stereo unspecified)", "Potency": "inconclusive: 25.1 µM"},
      {"smiles": "CP(=O)(Nc1ccc(Cl)cc1Cl)Oc1ccccc1", "note": "(stereo unspecified)", "Potency": "inconclusive: 25.1 µM"},
      {"smiles": "CCCCCCCCCCCCCCCC1C[N+](C)(C)CCOP(C)(=O)O1", "note": "(stereo unspecified)", "Potency": "inconclusive: 3.98 µM"},
      {"smiles": "Cc1cc(C)cc(OP(C)(=O)Nc2cccc(C(F)(F)F)c2)c1", "note": "(stereo unspecified)", "Potency": "inconclusive: 11.2 µM"},
      {"smiles": "COc1ccccc1OP(C)(=O)Nc1ccc(C)c(C)c1", "note": "(stereo unspecified)", "Potency": "inconclusive: 8.91 µM"},
      {"smiles": "CCN(CC)CC(O)COC(=O)C(O)(c1ccccc1)C1CCCCC1", "note": "(stereo unspecified)", "Potency": "inconclusive: 15.8 µM"},
      {"smiles": "COc1ccc(OP(C)(=O)Nc2ccc(Br)cc2)cc1", "note": "(stereo unspecified)", "Potency": "inconclusive: 7.08 µM"},
      {"smiles": "Cc1cc(-c2cccc3ccccc23)c(C)cn1.O=[N+]([O-])c1cc([N+](=O)[O-])c(O)c([N+](=O)[O-])c1", "Potency": "inconclusive: 12.6 µM"},
      {"smiles": "CN(C)CCOC(=O)C(O)(c1ccccc1)C1CCCCC1", "note": "(stereo unspecified)", "Potency": "inconclusive: 3.98 µM"},
      {"smiles": "CCN(CC)CCCOC(=O)C(O)(c1ccccc1)C1CCCCC1", "note": "(stereo unspecified)", "Potency": "inconclusive: 7.08 µM"},
      {"smiles": "CCCCCOc1ccc(NP(C)(=O)Oc2ccc(Cl)cc2Cl)cc1", "note": "(stereo unspecified)", "Potency": "inconclusive: 12.6 µM"},
      {"smiles": "COc1ccc(OP(C)(=O)Nc2ccc(SC(F)(F)F)cc2)cc1", "note": "(stereo unspecified)", "Potency": "inconclusive: 10 µM"},
      {"smiles": "O=C(OCCN1CCN(CCOCc2ccccc2)CC1)C(O)(c1ccccc1)c1ccccc1", "Potency": "inconclusive: 31.6 µM"},
      {"smiles": "CC(C)c1ccc(OP(C)(=O)Nc2ccc(SC(F)(F)F)cc2)cc1", "note": "(stereo unspecified)", "Potency": "inconclusive: 11.2 µM"},
      {"smiles": "Cc1ccc(C)c(NP(C)(=O)Oc2ccccc2)c1", "note": "(stereo unspecified)", "Potency": "inconclusive: 28.2 µM"},
      {"smiles": "CP(=O)(Nc1cccc(Br)c1)Oc1ccccc1", "note": "(stereo unspecified)", "Potency": "inconclusive: 3.55 µM"},
      {"smiles": "COc1ccccc1OP(C)(=O)Nc1cccc(Br)c1", "note": "(stereo unspecified)", "Potency": "inconclusive: 28.2 µM"},
      {"smiles": "CCOC(=O)c1ccc(NP(C)(=O)Oc2cc(C)cc(C)c2)cc1", "note": "(stereo unspecified)", "Potency": "inconclusive: 8.91 µM"},
      {"smiles": "CP(=O)(Nc1ccc(SC(F)(F)F)cc1)Oc1ccccc1", "note": "(stereo unspecified)", "Potency": "inconclusive: 7.94 µM"},
      {"smiles": "CCCOc1ccc(NP(C)(=O)Oc2ccc(Cl)cc2)cc1", "note": "(stereo unspecified)", "Potency": "inconclusive: 12.6 µM"},
      {"smiles": "CP(=O)(Nc1ccc(SC(F)(F)F)cc1)Oc1ccc(Cl)cc1", "note": "(stereo unspecified)", "Potency": "inconclusive: 12.6 µM"},
      {"smiles": "CP(=O)(Oc1ccccc1)OC(c1ccccc1)C(F)(F)F", "note": "(stereo unspecified)", "Potency": "inconclusive: 11.2 µM"},
      {"smiles": "CCc1ccc(OP(C)(=O)N2CCN(c3ccc([N+](=O)[O-])cc3)CC2)cc1", "note": "(stereo unspecified)", "Potency": "inconclusive: 15.8 µM"},
      {"smiles": "Cc1cc(C)cc(OP(C)(=O)Nc2ccc(SC(F)(F)F)cc2)c1", "note": "(stereo unspecified)", "Potency": "inconclusive: 10 µM"},
      {"smiles": "O=[N+]([O-])c1ccc2c(c1)C=Nc1ccccc1O2", "Potency": "inconclusive: 11.2 µM"},
      {"smiles": "CCN(CC)CCCOC(=O)C(O)(c1ccccc1)c1ccccc1", "Potency": "inconclusive: 7.94 µM"}
    ]}
  ]
}
